Most values lie at the floor of the assay. Slopes are relative: functional sequences can read slightly below zero.
These substances were tested on Saccharomyces cerevisiae PS128 hsf1 delta, HSF1(1-493) fusion (assay: growth estimate (transactivation domain function in HSF1 fusion, heat-shock survival) (a.u. (slope of normalised read count over time)); higher = stronger growth at 37°C, i.e. more transactivation activity). Conditions: library: random library.
Method: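 Random 60-nt DNA library encoding peptides of up to 20 aa, fused to the C-terminus of yeast HSF1 residues 1-493 (C-terminal TAD deleted) and expressed from the native HSF1 promoter on a CEN plasmid in hsf1-deleted S. cerevisiae PS128. Cells were selected at 37°C on -trp 5-FOA plates for 0, 2, 4, 6 and 8 days and amplicons were sequenced. Growth estimate is the slope of a robust linear fit of total-sum-normalised read counts (normalised to the first time point) over time, using at least 2 replicates. Sequences are classed functional (TAD activity) above a threshold of -0.13, set from stop-codon control sequences.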
With ARAQWAFTSDASGANAHQLE the growth estimate was under -0.25. In the case of ARATSQKQEGCPT, the growth estimate is reported as under -0.25. Substance ARATTCRVANW has a growth estimate of under -0.25. Work on ARAVMASPTTEQESSFHRRR yielded a growth estimate of under -0.25. In the case of ARCHLRAKKLWICCVLISGH, the growth estimate is reported as under -0.25. With ARDRGFACHGPMTLPGSRRT the growth estimate was under -0.25. ARDRLFID gave a growth estimate of under -0.25. For AREDITHDQGRRLRYDQCSG, the growth estimate was under -0.25. Substance AREVIGMDFDEWTCPVILHE has a growth estimate of -0.145. In the case of ARFMGQPCNRWAIYLSATGP, the growth estimate is reported as under -0.25. Substance ARFSDPRQDLCPVPSP has a growth estimate of under -0.25. ARGIAAAHHLGVTRDPTSRP showed a growth estimate of under -0.25. In the case of ARGRE, the growth estimate is reported as under -0.25. ARGRRRHLRGLGRDIKRLKR showed a growth estimate of under -0.25. With ARGSW the growth estimate was under -0.25. For ARHDAWL, the growth estimate was under -0.25. Substance ARHDGGFVE has a growth estimate of under -0.25. For ARHRLLRPERGPVTVT, the growth estimate was under -0.25. For ARISPQKLN, the growth estimate was under -0.25. For ARKP, the growth estimate was under -0.25. For ARKSGTMSPGVEYSTAT, the growth estimate was under -0.25. Substance ARLF has a growth estimate of under -0.25. For ARLIRALFIKGRRLSDFERT, the growth estimate was under -0.25. Substance ARLPFKPVSGGWRRTTWRRA has a growth estimate of under -0.25. ARLQHQGSPRAASPWRGIAT showed a growth estimate of under -0.25. For ARLRVVDVPTLGAGPVGGTE, the growth estimate was under -0.25. Substance ARLSIGGKNPRRMPRQAPTR has a growth estimate of -0.245. Substance ARLSPPLPAG has a growth estimate of under -0.25. Work on ARN yielded a growth estimate of under -0.25. For ARNGTVERLCSCHGKRLHPA, the growth estimate was under -0.25. ARNNVFRQGTWCSAPCDTGR was tested, and the growth estimate was under -0.25. Work on ARPRAIRGAIERGQVCRPQK yielded a growth estimate of under -0.25. With ARQRSPLRVGKGEGLSRGSI the growth estimate was -0.245. Work on ARQSDTGP yielded a growth estimate of under -0.25. Substance ARRGQGAFDSGSSLLN has a growth estimate of under -0.25. ARRKGAGIIVTGSGRRRTNM was tested, and the growth estimate was under -0.25. Substance ARRRQRLQLGA has a growth estimate of under -0.25. ARRSGQASRDSTIGGNAPER was tested, and the growth estimate was under -0.25. ARSA was tested, and the growth estimate was -0.233. In the case of ARSAPCISGMIGSWVVTQLV, the growth estimate is reported as under -0.25. In the case of ARSFGLLSWDPTASPCHVTG, the growth estimate is reported as under -0.25. ARSGCYEETPG showed a growth estimate of under -0.25. For ARSLCITEGECLILASLNLE, the growth estimate was under -0.25. For ARSRRAFTWVIRYEFRKSAV, the growth estimate was under -0.25. ARSTAGRPDTI showed a growth estimate of under -0.25. For ARTCQGVITAGAVSRSKDGP, the growth estimate was -0.243. For ARTGLETMGSTYSFKPSKND, the growth estimate was under -0.25. ARTNDTAGSMPQRRVDRCS showed a growth estimate of under -0.25. With ARTQGSAGKVDNATSRERHY the growth estimate was under -0.25. In the case of ARVCAGDTWHLL, the growth estimate is reported as under -0.25. Work on ARVHGLARPERPTQNSLSRG yielded a growth estimate of under -0.25. In the case of ARVKLLHAFRRH, the growth estimate is reported as under -0.25. Substance ARVKTS has a growth estimate of under -0.25. ARVLGVM showed a growth estimate of under -0.25. With ARVNDKE the growth estimate was under -0.25. For ARVRRGLGWGGALGSVIRGR, the growth estimate was under -0.25. Substance ARVSIIVETVVL has a growth estimate of under -0.25. With ARWRDALGSWLRKRSSTSVS the growth estimate was under -0.25. In the case of ARYIRLPSELLNRVPRHA, the growth estimate is reported as under -0.25. For ARYRGHQSLSSALQAISTGD, the growth estimate was under -0.25. ASAWADISCFELTARIAL was tested, and the growth estimate was under -0.25. Work on ASDIRGSGPECHQLLPFVAH yielded a growth estimate of under -0.25. Work on ASDVLETLPRDHPFLGGLLG yielded a growth estimate of -0.246. Substance ASES has a growth estimate of under -0.25. With ASESGSSIP the growth estimate was under -0.25. For ASEVGLCA, the growth estimate was under -0.25. Substance ASFISSGSPSAAECGACRSA has a growth estimate of under -0.25. With ASGAIVMMIALFLGDRGYPG the growth estimate was under -0.25. Substance ASGARLPSRR has a growth estimate of under -0.25. Work on ASGDGPERMW yielded a growth estimate of under -0.25. Work on ASGDNGGSIGKLAISSLKGY yielded a growth estimate of under -0.25. ASGRDETGLSTADVQSTLIG gave a growth estimate of -0.243. Work on ASGRWISSGQ yielded a growth estimate of under -0.25. With ASHRCERRDECNLLW the growth estimate was under -0.25. For ASHTLRRLSLESP, the growth estimate was under -0.25. In the case of ASILYSLMADRDQ, the growth estimate is reported as under -0.25. ASLDGFSVGCHSGHFALSIA gave a growth estimate of -0.246. ASLEIRPDGSLGPQRQPKCA was tested, and the growth estimate was -0.233. For ASLGCEPLEGRGA, the growth estimate was under -0.25.
